Data: publication PMC5571533
The exact form of at least one protein or probe is not confirmed. Results from cells or extracts need not show a direct contact. For part of these data: No signal at the amounts used counts as a negative. Protein sequences can lack the tags named with them.

Columns and labels:
[1] = molecular target: T1, HNF3β (hepatocyte nuclear factor 3-beta) (human (HepG2 cells)) (UniProt Q9Y261); test: EMSA supershift; details: anti-HNF3β 4 ug, HepG2 nuclear extract; 20 ug HepG2 nuclear extract, 0.5 ug poly(dI-dC) (0.8 ug in supershift), 13.8 nM probe, 18 ul, 25 C 20 min, 6% native PAGE; salt and pH not stated (Viagene kit); protein in an extract; label: 5' biotin on both strands
T1 sequence (looked up, limits assumed): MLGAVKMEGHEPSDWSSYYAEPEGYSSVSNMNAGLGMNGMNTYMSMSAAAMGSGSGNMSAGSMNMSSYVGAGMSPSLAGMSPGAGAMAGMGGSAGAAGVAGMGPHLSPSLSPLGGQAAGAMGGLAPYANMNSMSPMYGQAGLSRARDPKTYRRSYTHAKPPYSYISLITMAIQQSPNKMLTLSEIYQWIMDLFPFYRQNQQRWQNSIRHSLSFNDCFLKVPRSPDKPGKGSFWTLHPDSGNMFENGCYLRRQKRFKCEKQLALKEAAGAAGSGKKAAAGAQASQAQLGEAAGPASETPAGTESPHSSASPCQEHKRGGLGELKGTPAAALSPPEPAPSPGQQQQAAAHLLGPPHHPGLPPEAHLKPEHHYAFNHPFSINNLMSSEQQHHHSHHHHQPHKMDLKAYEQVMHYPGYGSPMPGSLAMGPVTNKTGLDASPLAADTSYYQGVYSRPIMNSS

[2] = molecular target: T1, HNF3β (hepatocyte nuclear factor 3-beta) (human (HepG2 cells)); test: competition EMSA; details: 50- and 100-fold molar excess cold probe diminished the band; 20 ug HepG2 nuclear extract, 0.5 ug poly(dI-dC) (0.8 ug in supershift), 13.8 nM probe, 18 ul, 25 C 20 min, 6% native PAGE; salt and pH not stated (Viagene kit); protein in an extract
[3] = molecular target: T1, HNF3β (hepatocyte nuclear factor 3-beta) (human (HepG2 cells)); test: competition with a labelled probe; details: cold mutated probe (50- to 100-fold excess) did not diminish the band; 20 ug HepG2 nuclear extract, 0.5 ug poly(dI-dC) (0.8 ug in supershift), 13.8 nM probe, 18 ul, 25 C 20 min, 6% native PAGE; salt and pH not stated (Viagene kit); protein in an extract

Sequence: CTTTTAAAATAGTTGCTTTCTTAGG (double strand) [CPS1 promoter HNF3β site 2 probe]
- binding result [1]: binds

Sequence: CTTTTAAAATAGTTGCTTTCTTAGG (double strand) [cold wild-type CPS1 probe]
- binding result [2]: binds

Sequence: CTTTTAAGGTATCCGCCCTCTTAGG (double strand) [HNF3βmut cold probe]
- binding result [3]: no binding
